# ± gives the standard deviation of the averaged measurements. The list shows a part of the results.
# Biological target: T1, A0A087WW65|O75027 and related entries (UniProt O75027)
# T1 sequence (whole entry): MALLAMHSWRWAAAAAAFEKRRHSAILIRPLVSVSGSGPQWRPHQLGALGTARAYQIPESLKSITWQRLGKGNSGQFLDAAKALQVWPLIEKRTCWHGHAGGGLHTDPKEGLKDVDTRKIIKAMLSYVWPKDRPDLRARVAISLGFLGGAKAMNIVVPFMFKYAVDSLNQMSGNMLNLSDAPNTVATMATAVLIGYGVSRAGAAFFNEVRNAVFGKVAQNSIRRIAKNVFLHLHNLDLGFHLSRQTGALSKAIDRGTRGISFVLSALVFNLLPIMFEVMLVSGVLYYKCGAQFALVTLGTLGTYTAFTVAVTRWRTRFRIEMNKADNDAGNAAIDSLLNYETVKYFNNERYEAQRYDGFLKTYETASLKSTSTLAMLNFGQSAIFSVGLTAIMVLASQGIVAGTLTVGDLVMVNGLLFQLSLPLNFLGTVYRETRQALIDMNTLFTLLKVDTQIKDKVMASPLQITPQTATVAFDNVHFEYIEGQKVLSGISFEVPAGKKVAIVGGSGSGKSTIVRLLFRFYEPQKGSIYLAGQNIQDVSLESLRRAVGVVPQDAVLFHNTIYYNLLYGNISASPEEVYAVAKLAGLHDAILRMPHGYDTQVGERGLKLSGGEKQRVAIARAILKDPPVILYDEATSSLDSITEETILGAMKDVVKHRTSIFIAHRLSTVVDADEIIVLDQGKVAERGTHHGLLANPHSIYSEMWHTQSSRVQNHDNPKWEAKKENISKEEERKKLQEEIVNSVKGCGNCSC
# Test: NP40-soluble protein abundance relative to vehicle (solubility fold change) (ratio); higher = more soluble protein in presence of GTP
# Experimental: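 Solubility proteome profiling in Jurkat crude lysate. Lysate was treated with Mg-GTP (0.1-10 mM) for 10 min at room temperature and 3 min at 37 °C, then solubilised with 0.8% NP40 and benzonase, followed by ultracentrifugation. Proteins were quantified by TMT10 LC-MS/MS; the value is the NP40-soluble abundance relative to the NP40-processed vehicle, from 3 independent experiments.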
smiles,measurement,setting,value
Nc1nc2c(ncn2[C@@H]2O[C@H](COP(=O)(O)OP(=O)(O)OP(=O)(O)O)[C@@H](O)[C@H]2O)c(=O)[nH]1 [guanosine triphosphate],NP40-soluble protein abundance,concentration: 0.1mM,1.09 ± 0.042
same,NP40-soluble protein abundance,concentration: 0.5mM,1.05 ± 0.076
same,NP40-soluble protein abundance,concentration: 1mM,0.966 ± 0.042
same,NP40-soluble protein abundance,concentration: 2mM,0.959 ± 0.042
same,NP40-soluble protein abundance,concentration: 4mM,0.965 ± 0.096
same,NP40-soluble protein abundance,concentration: 6mM,0.939 ± 0.056
same,NP40-soluble protein abundance,concentration: 8mM,0.928 ± 0.037
same,NP40-soluble protein abundance,concentration: 10mM,0.887 ± 0.068

# An excerpt from the list above:
smiles,measurement,setting,value
Nc1nc2c(ncn2[C@@H]2O[C@H](COP(=O)(O)OP(=O)(O)OP(=O)(O)O)[C@@H](O)[C@H]2O)c(=O)[nH]1 [guanosine triphosphate],NP40-soluble protein abundance,concentration: 1mM,0.966 ± 0.042
same,NP40-soluble protein abundance,concentration: 2mM,0.959 ± 0.042
